This test in a line: qHTS Assay for Lipid Storage Modulators in Drosophila S3 Cells.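 On cell number change: cells counted by Cell Tracker Red CMTPX staining in the red channel.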 The settings on record: BODIPY lipid droplet fluorescence, 18-24 h; for cell number change: measured here: cell count max response, cells fed with added oleic acid. The gist of the method: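 Drosophila S3 cells loaded with oleic acid (400 uM, as added) and compounds at several concentrations; lipid droplets imaged by 488-nm laser-scanning cytometry, 500–530 nm intensity and object ratio to cell channel. Percent activity normalized to 20 uM Triacsin C.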
On the technique in general: Quantitative high-throughput screening tests each substance at several concentrations.

Where [1] appears, read: measured here: cell number channel AC50, cells fed with added oleic acid.
The mark [2] stands for this setting: measured here: lipid fluorescence (Fed channel) AC50, cells fed with added oleic acid.

The list shows a part of the results. The main result of the screen is listed elsewhere. These columns were measured beside it and carry no call. Compounds called inactive in the main read-out are mostly missing here. The note in brackets gives the kind of curve behind each potency; many fits are weak.

The term AC50 denotes the concentration at which the activity in the assay is half-maximal. Read a low AC50 as greater potency. On to `COCCN(C(=O)COC(=O)c1oc2ccc(OC)cc2c1C)c1c(N)n(Cc2ccccc2)c(=O)[nH]c1=O`, for which the cell number change was -25.5%. In addition, the AC50 under setting [1] is 2.31 µM [falling, full curve, poor fit]. The AC50 under setting [2] is 8.2 µM [falling, partial curve].
In the case of `COc1cccc(Cn2c(C3CC3)nc3ccc(NC(=O)c4ccco4)cc3c2=O)c1`, the cell number change is -9.64%. For the same compound, the AC50 under setting [2] is 1.03 µM [rising, partial curve].
On to `CCOC(=O)N/N=C/c1ccc(OCCSc2ccc(Cl)cc2)c(OCC)c1`, for which the cell number change is 24.1%. Further, the AC50 under setting [1] was 3.26 µM [rising, partial curve]. Further, the AC50 under setting [2] is 6.51 µM [rising, partial curve, poor fit].
For `CCN(CC)S(=O)(=O)c1ccc(NC(=O)Nc2cccc(C(F)(F)F)c2)cc1`, the cell number change is -83.7%. The AC50 under setting [1] was 16.4 µM [falling, partial curve].
For `CC1CCCN(C(=O)COC(=O)c2cc(-c3cccs3)nn2-c2ccccc2)C1` (centres undefined), the cell number change turned out to be 12%.
For the compound `C=CCn1c(SCC(=O)NCc2ccco2)nc2sc3c(c2c1=O)CCC3`, the cell number change is -31.8%. The AC50 under setting [1] is 0.0058 µM [falling, full curve, poor fit]. Moreover, under setting [2], the AC50 was 29.1 µM [falling, single point].
Turning to `Cc1ccc(SCC(=O)Nc2ccc(N3CCOCC3)cc2)cc1C`, the cell number change stood at 5.22%. In addition, the AC50 under setting [2] was 1.03 µM [rising, partial curve, poor fit].
As for `O=C(Nc1cc(C(F)(F)F)ccc1-n1cncn1)c1ccc([N+](=O)[O-])o1`, the cell number change was 28.9%. The AC50 under setting [1] is 0.058 µM [rising, full curve]. Moreover, the AC50 under setting [2] is 0.0651 µM [rising, full curve, poor fit].
With `CC(=O)Nc1ccc(S(=O)(=O)N2CCN(c3nc4ccccc4n3CC(C)C)CC2)cc1`, the cell number change is 15.2%. Under setting [2], the AC50 is 0.0326 µM [rising, full curve, poor fit].
Consider `CC(=O)c1cccc(OCC(=O)Nc2cccc(C(=O)Nc3c(C)n(C)n(-c4ccccc4)c3=O)c2)c1`, for which the cell number change amounted to 2.19%.
Same read-out and setting: under `O=C1N=c2ccc([N+](=O)[O-])cc2=C1c1sc(=O)[nH]c1O` stands -22%.
Regarding `COc1ccc(NC(=O)c2c(-c3ccccc3)noc2C)c(OC)c1`, the cell number change stood at 53.2%. Further, the AC50 under setting [1] was 29.1 µM [rising, single point].
As for `Cc1ccc2nc(Br)c3c(c2c1)OC(CBr)C3` (centres undefined), the cell number change was -22.6%. Also, the AC50 under setting [2] is 13 µM [falling, partial curve].
For the compound `Cc1cc(C)c(C#N)c(N2CCN(c3ccccc3F)CC2)n1`, the cell number change worked out at 15.5%.
As to `O=C(O)CSc1nnc(-c2ccc(Cl)cc2Cl)n1Cc1ccccc1`, the AC50 under setting [2] was 7.31 µM [falling, partial curve].
On the same count and under the same terms, as for `CCc1ccc(-c2cc3c(=O)n(CC(=O)NCCCN4CCN(C)CC4)ncn3n2)cc1`, the figure is 29.1 µM [rising, single point].
As to `O=C(NCCCN1CCOCC1)c1ccc2c(=O)n(Cc3cccc(Br)c3)c(=S)[nH]c2c1`, the cell number change was 9.91%. Besides, under setting [2], the AC50 was 6.51 µM [rising, single point].
As to `C/C(=N/NC(=O)c1ccc(C)s1)c1ccncc1`, the cell number change stood at 6.9%. Further, under setting [2], the AC50 is 5.17 µM [rising, full curve, poor fit].
On to `COc1cc(-n2c(N)c(C(=O)NCc3ccco3)c3nc4ccccc4nc32)cc(OC)c1OC`, for which the cell number change stood at 5.57%. Besides, the AC50 under setting [2] was 0.651 µM [rising, partial curve].
As to `CC1(C)CC(Nc2ccc(Nc3ccccc3)cc2)CC(C)(C)N1`, the cell number change is -57.7%. The AC50 under setting [1] was 23.1 µM [falling, single point]. In addition, under setting [2], the AC50 is 25.9 µM [falling, partial curve, poor fit].
As to `CCCCc1ccc(Nc2nc(N3CCOCC3)nc(N3CCOCC3)n2)cc1`, the cell number change was found to be 10.1%. Further, the AC50 under setting [2] was 29.1 µM [rising, single point].
`Cc1ccccc1-n1c(CSC(=N)N)nc2ccccc2c1=O`: the cell number change turned out to be 9.42%. Moreover, under setting [2], the AC50 is 0.58 µM [falling, single point].
On to `Cc1ccc(CCNC(=O)C2CCN(S(=O)(=O)N3CCC4(CC3)OCCO4)CC2)cc1`, for which the cell number change stood at 174%. For the same compound, under setting [2], the AC50 is 29.1 µM [rising, single point].
`CCn1c(CNC(=O)c2ccco2)nnc1SCC(=O)Nc1cc(F)ccc1C`: the cell number change is 2.86%.
With `COC(=O)CNC(=O)C(Cc1c[nH]c2ccccc12)NC(=O)OC(C)(C)C` (centres undefined), the cell number change is -2.88%. Also, the AC50 under setting [2] was 29.1 µM [rising, single point].
For the compound `COCCNC(=O)Cn1cnc2c1c(=O)n(C)c(=O)n2C`, the cell number change is -55.5%. Also, the AC50 under setting [1] is 23.1 µM [falling, single point]. Further, under setting [2], the AC50 was 29.1 µM [falling, single point].
As to `Cc1ccc(C)c(CN2CCCN(C(=O)Cn3ncc4c3-c3ccccc3OC4)C2)c1`, the cell number change was -16.7%. In addition, the AC50 under setting [2] is 2.59 µM [rising, partial curve].
On to `CC(C)[C@@H](CO)NC(=O)c1ccc2c3n(nc2c1)-c1ccc(Cl)cc1CO3`, for which the cell number change was -0.982%. The AC50 under setting [2] is 6.51 µM [falling, single point].
In the case of `COc1ccc(C(=O)NNS(=O)(=O)c2ccccc2)cc1`, the cell number change turned out to be 36.9%. In addition, under setting [1], the AC50 was 29.1 µM [rising, single point]. Further, the AC50 under setting [2] was 13 µM [rising, partial curve].
Take `COc1cccc(CNC(=O)Cc2csc(NC(=O)Nc3ccccc3OC)n2)c1`: under setting [1], the AC50 is 0.146 µM [rising, full curve, poor fit].
Regarding `Cc1ccc(SCC(=O)Nc2ccccc2N2CCOCC2)cc1`, the cell number change is 30.4%. For the same compound, the AC50 under setting [1] is 0.411 µM [rising, full curve, poor fit].
On to `CCCc1cc(=O)oc2cc(OC3CCCCC3=O)ccc12` (centres undefined), for which the cell number change was -2.13%. The AC50 under setting [2] was 0.651 µM [falling, full curve, poor fit].
As to `Cc1oc(-c2ccccc2Cl)nc1CS(=O)CC(=O)NCc1ccc(Cl)cc1` (centres undefined), the cell number change came out at 25.8%. In addition, the AC50 under setting [1] was 6.51 µM [rising, partial curve, poor fit].
For the compound `CCC1(C)Cc2ccccc2C(Nc2c(C)n(C)n(-c3ccccc3)c2=O)=N1` (centres undefined), the cell number change turned out to be 31%. The AC50 under setting [1] is 9.2 µM [rising, partial curve]. Besides, the AC50 under setting [2] is 6.51 µM [falling, single point].
In the case of `CN(c1ccccc1)S(=O)(=O)c1cccc(NC(=O)COc2cccc([N+](=O)[O-])c2)c1`, the cell number change worked out at 2.02%. Besides, the AC50 under setting [2] is 2.31 µM [rising, partial curve, poor fit].
In the case of `CCCCNC(=O)/C=C/c1ccc(S(=O)(=O)Nc2ccc(OC)cc2)cc1`, the AC50 was 0.731 µM [falling, single point] under setting [1] and 0.731 µM [falling, single point] under setting [2].
As to `Cc1cccc(OCc2nnc(SCC(=O)Nc3ncc(C)s3)o2)c1`, the cell number change was 17.3%.
Consider `COc1c2ccoc2nc2c(OC)cccc12`, for which the cell number change worked out at 11.1%. Further, the AC50 under setting [2] is 29.1 µM [rising, single point].
For the compound `COCCNC(=O)CN(C)S(=O)(=O)c1ccc2c(c1)OCCO2`, the AC50 under setting [1] was 0.731 µM [falling, single point].
As to `C/C(=N\NC(=O)C1COc2ccccc2O1)c1cccs1` (centres undefined), the cell number change was 33.9%. Also, the AC50 under setting [1] is 5.8 µM [rising, full curve, poor fit].
In the case of `Cc1ccsc1C1C(C#N)=C(N)N(N(C)C)C2=C1C(=O)CCC2` (centres undefined), the cell number change is -70.4%. Also, the AC50 under setting [1] was 2.59 µM [falling, partial curve]. Besides, under setting [2], the AC50 was 0.206 µM [falling, full curve, poor fit].
In the case of `O=C(NCC(c1ccco1)N1CCCC1)c1sc2ccccc2c1Cl` (centres undefined), the cell number change came to 8.5%. For the same compound, under setting [2], the AC50 is 4.61 µM [falling, full curve, poor fit].
As for `Nc1c2c(nc3ccn(-c4ccccc4)c(=O)c13)CCCCC2`, the cell number change was determined as 2.37%. In addition, the AC50 under setting [2] is 0.116 µM [falling, full curve].
`COc1ccc(CNS(=O)(=O)c2cc3c4c(c2)CCN4C(=O)CC3)cc1`: the cell number change was determined as 7.2%. Under setting [2], the AC50 was 29.1 µM [falling, single point].
Consider `CCOC(=O)c1sc(=S)n(Cc2ccccc2)c1N`, for which the cell number change is -31%. The AC50 under setting [1] was 16.4 µM [falling, partial curve, poor fit].
In the case of `CN1CCc2nc(SCC(=O)Nc3ccc(F)cc3)c(C#N)cc2C1`, the AC50 under setting [2] is 0.411 µM [rising, single point].
As for `Fc1ccc(NC(=S)N2CCN(C/C=C/c3ccccc3)CC2)c(F)c1`, the cell number change was -60.5%.
Still for that read-out and setting: as for `CCC(C)[C@H](N)c1nnc(SCc2cccc(F)c2)o1` (some centres undefined), the figure is 0.182%.
As to `CCCCSc1nc(N)c(C#N)c(-c2cccs2)c1C#N`, the cell number change is -9.85%. The AC50 under setting [2] is 1.84 µM [rising, partial curve].
As to `CCOC(=O)C1=C(COC(=O)Cc2ccccc2F)NC(=O)NC1C` (centres undefined), the cell number change was -5.86%. Further, the AC50 under setting [2] is 25.9 µM [falling, partial curve, poor fit].
For the compound `COCCN(C(=S)Nc1c(C)cccc1C)C(C)c1cccnc1` (centres undefined), the cell number change was found to be 64%. Besides, the AC50 under setting [1] was 29.1 µM [rising, single point]. For the same compound, under setting [2], the AC50 was 6.51 µM [rising, single point].
Take `COc1ccccc1-c1ocnc1C(=O)Nc1ccc(N2CCOCC2)cc1N1CCOCC1`: the cell number change is -6.05%. Under setting [1], the AC50 was 4.11 µM [falling, single point]. Further, the AC50 under setting [2] is 29.1 µM [falling, single point].
For `Cn1c(=O)[nH]c(=O)c2[nH]c(NCCCN3CCOCC3)nc21`, the cell number change was -35.4%. The AC50 under setting [1] was 0.231 µM [falling, full curve, poor fit]. Besides, the AC50 under setting [2] is 1.16 µM [falling, full curve].
Turning to `O=C(O)c1c(Cl)c(Cl)c(Cl)c(Cl)c1C(=O)N1CCCC1`, the cell number change is -31.6%. Besides, the AC50 under setting [1] was 29.1 µM [falling, single point]. Also, the AC50 under setting [2] was 20.6 µM [falling, single point].
For `Cc1cc(C)nc(Nc2cccc3ccccc23)n1`, the cell number change is 11.6%. Also, under setting [2], the AC50 was 29.1 µM [rising, single point].
Consider `CCOC(=O)C1=C(C)N(Cc2ccc(C(=O)O)cc2)C(=O)NC1c1ccc([N+](=O)[O-])cc1` (centres undefined), for which the cell number change was found to be 1.66%. In addition, the AC50 under setting [2] was 8.2 µM [falling, partial curve].
Regarding `COC(=O)c1sc(S(=O)(=O)Nc2ccc3cn[nH]c3c2)c(C(=O)OC)c1C`, the cell number change turned out to be 234%.
Still for that read-out and setting: under `Cc1ccc(C(=O)N2CCN(C)CC2)cc1S(=O)(=O)N1CCCCC1` stands -2.42%.
